In PubChem BioAssay AID2685 (National Center for Advancing Translational Sciences (NCATS), 2010):
This is one part of the list. These are further read-outs of the screen, such as a control signal, another cell line or another target. No call is given for them. The list favours compounds with an active or inconclusive main result. The note in brackets gives the kind of curve behind each potency; many fits are weak.

Assay: qHTS Assay for Lipid Storage Modulators in Drosophila S3 Cells;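 for cell number change: cells counted by Cell Tracker Red CMTPX staining in the red channel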
Conditions: BODIPY lipid droplet fluorescence, 18-24 h; for cell number change: measured here: cell count max response, cells fed with added oleic acid
In short: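 Drosophila S3 cells got compounds at several concentrations plus oleic acid (400 uM solution). Laser-scanning cytometry with 488 nm excitation read lipid droplets at 500-530 nm and cells at 575-640 nm. Percent activity was relative to 20 uM Triacsin C.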

[1] = measured here: lipid fluorescence (Fed channel) AC50, cells fed with added oleic acid
[2] = measured here: cell number channel AC50, cells fed with added oleic acid

| Structure (SMILES) | cell number change [%] | AC50 [1] | AC50 [2] |
| --- | --- | --- | --- |
| COc1ccccc1-c1nn(-c2ccccc2)cc1C(=O)NC1CC1 | -10.9 | 0.291 µM [rising, full curve, poor fit] | – |
| Cc1ccccc1C(=O)NN1CC(C(=O)OCc2ccc(Cl)c(Cl)c2)CC1=O (stereo not drawn) | 16.6 | 2.59 µM [rising, full curve] | 0.82 µM [rising, full curve, poor fit] |
| C/C(=N\NC(=O)c1csc(C)c1C)c1ccc(C)s1 | 32 | 23.1 µM [rising, single point] | 29.1 µM [rising, single point] |
| Cc1ccc(C(=O)c2cc3c(cc2[N+](=O)[O-])OCCO3)cc1 | -4.62 | 25.9 µM [falling, partial curve] | – |
| CCSc1nc2cc(OC)c(OC)cc2c(=O)n1CC | – | 5.8 µM [rising, single point] | – |
| CCOC(=O)c1cnn(C)c1NC(=O)c1ccc([N+](=O)[O-])cc1 | 2.63 | 3.55 µM [rising, single point] | – |
| N/C(=N\O)c1ccc(N2CCN(c3ncccc3C(F)(F)F)CC2)nc1 | -13.6 | 20.6 µM [falling, single point] | – |
| COc1cc2c(cc1NC(=O)COC(=O)[C@@H](NS(=O)(=O)c1ccccc1)C(C)C)oc1ccccc12 | -9.51 | 20.6 µM [falling, single point] | – |
| NC(N)=NS(=O)(=O)c1ccc(NC(=S)NC(=O)/C=C/c2cccs2)cc1 | 25.4 | – | – |
| O=C(O)CC/C(=C\c1ccc(N2CCOCC2)c([N+](=O)[O-])c1)c1nc2ccccc2s1 | – | – | 0.146 µM [falling, single point] |
| NC(=O)CC(NC(=O)c1ccccc1)c1ccc(NCc2ccc(F)cc2)c([N+](=O)[O-])c1 (stereo not drawn) | 1.59 | 32.6 µM [falling, partial curve, poor fit] | – |
| CC(=O)c1coc2ccc(OCCN3CCCCC3)cc12 | -0.778 | – | – |
| O=C(COc1ccc(Cl)cc1)NNC(=O)CSc1nncs1 | 41.9 | – | – |
| CCc1cccc(NS(=O)(=O)c2ccc3c(c2)n(C)c(=O)n3C)c1 | -18.3 | – | – |
| CCOC(=O)/C(=C/c1c(C)n(C)c2ccc([N+](=O)[O-])cc12)C(C)=O | 0.454 | 23.1 µM [falling, single point] | – |
| Cc1c(C(=O)OCC(=O)N(C)Cc2ccc(Cl)cc2)oc2ccccc12 | -3.88 | 0.116 µM [rising, full curve, poor fit] | – |
| CCNC(=S)N/N=C/c1ccc(OCc2ccc(C(=O)OC)cc2)cc1 | 30.9 | – | 0.0326 µM [rising, full curve, poor fit] |
| CC(C)Oc1ccc(C(=O)N2CCCc3ccccc32)cc1 | -16.9 | 0.184 µM [rising, full curve, poor fit] | – |
| COc1ccc(N(CC(=O)N2CCN(Cc3ccccc3)CC2)S(C)(=O)=O)cc1 | 8.56 | 0.58 µM [rising, single point] | – |
| Cc1ccc(C2=NN(C(=O)CCCC(=O)O)C(c3ccc4c(c3)OCO4)C2)cc1 (stereo not drawn) | 9.85 | 29.1 µM [rising, single point] | – |

| Structure (SMILES) | cell number change [%] | AC50 [1] | AC50 [2] |
| --- | --- | --- | --- |
| O=C(COC(=O)c1ccccc1)NC12CC3CC(CC(C3)C1)C2 | 9.84 | 0.00461 µM [rising, full curve, poor fit] | – |
| COc1ccc(NC(=O)CCC(=O)N(Cc2ccc(OC)c(OC)c2)c2nccs2)cc1 | 3.74 | 7.31 µM [rising, partial curve, poor fit] | – |
| CC(=O)C1=C(C)NC(SCC(=O)c2ccc(F)cc2)=C(C#N)C1c1ccco1 (stereo not drawn) | -5.42 | 4.11 µM [falling, single point] | – |
| O=C(c1ccc(-c2ccccc2)cc1)N1CCCC1 | -13.5 | 2.31 µM [rising, single point] | – |
| CC1CN(C(=O)COC(=O)c2ccccc2O)CC(C)O1 (stereo not drawn) | -6.41 | – | – |
| CCCCOCCCNCC(=O)Nc1ccc(S(N)(=O)=O)cc1 | -24.8 | – | – |
| O=C(/C=C\c1ccc2c(c1)OCO2)NC1(C(=O)Nc2ccc3c(c2)OCO3)CCCCC1 | – | 0.82 µM [rising, single point] | – |
| CCOC(=O)c1cccnc1SCC(=O)Nc1ccc(C)cc1 | 29 | 4.61 µM [rising, full curve] | 4.61 µM [rising, full curve, poor fit] |
| Cc1[nH]c2ccccc2c1C(=O)C(=O)N1CCN(c2ccccc2F)CC1 | – | 14.6 µM [falling, partial curve, poor fit] | – |
| CCCc1nc2c(sc3nc4c(cc32)COC(C)(C)C4)c(=O)o1 | 128 | – | – |
| O=C(NCc1ccccc1)c1cc2ccc(O)cc2oc1=O | -10.1 | 29.1 µM [rising, single point] | – |
| CCN1CCN(c2nc(-c3cccnc3)nc3ccccc23)CC1 | 172 | 16.4 µM [rising, partial curve] | 18.4 µM [rising, partial curve] |
| COc1ccc(S(=O)(=O)N2CCN(C(=O)Cc3ccsc3)CC2)cc1 | 129 | – | 0.116 µM [falling, full curve, poor fit] |
| O=C(NCc1ccco1)c1sc2ccccc2c1Cl | -20.4 | 7.31 µM [falling, single point] | – |
| O=C(O)CCC(=O)Nc1ccc(C(=O)N2CCCCC2)cc1 | -5.16 | 2.06 µM [falling, partial curve] | – |
| COc1ccc(-c2nc3ccccc3c(=O)n2CCOc2cc(C)ccc2C)cc1 | – | 1.03 µM [rising, full curve] | 0.731 µM [rising, partial curve] |
| O=C(Nc1ccccc1Cl)c1cccc(NC(=O)C2C3CC4OC(=O)C2C4C3)c1 (stereo not drawn) | 61 | – | 0.259 µM [rising, full curve] |
| CCc1nn(CC(=O)NCCCc2ccccc2)c(=O)c2cc3cc(F)ccc3n12 | -4.2 | 29.1 µM [rising, single point] | – |
| CCC(Sc1nc(N)c(NC(=O)c2ccc(Br)o2)c(=O)[nH]1)C(=O)O (stereo not drawn) | 3.68 | 6.51 µM [rising, single point] | – |
| O=C(COC(=O)Cc1cccs1)Nc1ccccc1 | -3.3 | 0.651 µM [rising, single point] | – |

| Structure (SMILES) | cell number change [%] | AC50 [1] | AC50 [2] |
| --- | --- | --- | --- |
| COc1ccc(C)cc1NC(=O)CSc1nnc(-c2ccc(C)cc2)o1 | 46.7 | 7.31 µM [rising, partial curve, poor fit] | 7.31 µM [rising, partial curve, poor fit] |
| COc1ccc(CC(C)Nc2cccc(SC)c2)cc1 (stereo not drawn) | – | 29.1 µM [rising, single point] | – |
| CCn1c(C)cc(/C=C2/SC(=O)N(CC(=O)N3CCCC3)C2=O)c1C | 5.13 | 0.103 µM [falling, partial curve, poor fit] | – |
| CN(C)c1ccc(C(CNC(=O)c2ccccc2Br)c2c[nH]c3ccccc23)cc1 (stereo not drawn) | -6.2 | 3.66 µM [falling, full curve, poor fit] | – |
| CN(CC(=O)Nc1ccccc1C(F)(F)F)C(=O)Cc1ccc(S(=O)(=O)N2CCOCC2)s1 | 39.8 | – | 5.8 µM [rising, full curve] |
| Nc1nonc1-n1nnc(C(=O)N/N=C/c2ccc(Cl)cc2Cl)c1CN1CCCC1 | -58.6 | 29.1 µM [falling, single point] | – |
| COc1cc(C(=O)Oc2ccc(/C=N/NC(=O)c3ccncc3)cc2)cc(OC)c1OC | -6.93 | 6.51 µM [rising, single point] | – |
| CC(Oc1cccnc1[N+](=O)[O-])C(=O)Nc1ccc(Cl)cn1 (stereo not drawn) | -13.7 | 29.1 µM [falling, single point] | – |
| CC(C)(C)C(=O)/C(C#N)=C/c1cccs1 | 16.2 | – | – |
| CC(C)c1ccc(NC(=S)NN2C(C)CCCC2C)cc1 (stereo not drawn) | – | 6.51 µM [rising, single point] | 3.26 µM [rising, single point] |
| COc1ccc(NC(=O)C(=O)NNC(=O)c2ccc(Cl)cc2Cl)cc1 | 3.24 | 29.1 µM [rising, single point] | – |
| CN1CCN(S(=O)(=O)c2ccc(NC(=S)NC(=O)C3CCC3)cc2)CC1 | 16.3 | 6.51 µM [rising, single point] | 6.51 µM [rising, single point] |
| c1ccc(OCc2cc(-c3ccccc3)no2)cc1 | 42.9 | 29.1 µM [rising, single point] | 20.6 µM [rising, single point] |
| N#Cc1ccc(CN2CCN(C(=O)c3cc(C4CC4)nn3-c3ccccc3)CC2)cc1 | -22.5 | 29.1 µM [falling, single point] | – |
| COC(=O)c1c(C(=O)OC)c2cc(C)ccn2c1Cl | -18.3 | – | – |
| NS(=O)(=O)c1ccc(NC(=O)CCCCCN2C(=O)c3ccccc3C2=O)cc1 | – | 29.1 µM [falling, single point] | – |
| CCOC(=O)c1ccc(NC(=O)CN(C)S(=O)(=O)c2ccc(Br)s2)cc1 | 14.2 | 7.31 µM [rising, partial curve] | – |
| COc1cc(/C=C2/C(=O)NN(c3ccc(Cl)cc3)C2=O)cc(OC)c1O | 38 | 10.3 µM [rising, partial curve] | 0.00517 µM [rising, full curve, poor fit] |
| COc1ccc(C2C3=C(CC(C)(C)CC3=O)Nc3c2c(=O)[nH]c2nc(C)nn32)cc1 (stereo not drawn) | 33.3 | – | 0.0291 µM [rising, full curve] |
| O=S(=O)(c1ccc(Cl)cc1)N1CCCC(C(F)(F)F)C1 (stereo not drawn) | 91.1 | – | 29.1 µM [rising, single point] |

Four of these compounds in another layout:
CCn1c(C)cc(/C=C2/SC(=O)N(CC(=O)N3CCCC3)C2=O)c1C
  cell number change [%]: 5.13; AC50 [1]: 0.103 µM [falling, partial curve, poor fit]
CN(C)c1ccc(C(CNC(=O)c2ccccc2Br)c2c[nH]c3ccccc23)cc1 (stereo not drawn)
  cell number change [%]: -6.2; AC50 [1]: 3.66 µM [falling, full curve, poor fit]
CN(CC(=O)Nc1ccccc1C(F)(F)F)C(=O)Cc1ccc(S(=O)(=O)N2CCOCC2)s1
  cell number change [%]: 39.8; AC50 [2]: 5.8 µM [rising, full curve]
Nc1nonc1-n1nnc(C(=O)N/N=C/c2ccc(Cl)cc2Cl)c1CN1CCCC1
  cell number change [%]: -58.6; AC50 [1]: 29.1 µM [falling, single point]
